PubChem BioAssay AID1159578 – Peter MacCallum Cancer Centre | 2015

Purpose: 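siRNA pools altering how lymphatic endothelial cells close a scratch wound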 (primary screen)
Cell system: human lymphatic endothelial cells
Knock-down reagent: siRNA pool against human genes, 40 nM
Time to read-out: 48 h after transfection
Measurement: 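High-content imaging of dye-stained cells in a scratch assay measures filled wound area and nuclei per well; duplicate means given as ratio to mock and robust z-score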
Reading the numbers: migration robust z-score: higher = faster migration into the scratch; nuclei per well: higher = more cells in the well
Rule for the call: 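Pools averaging fewer than 3300 nuclei are never called; remaining pools count as changed when migration robust z lies outside -2 to 2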
Meaning of the calls: active = migration changed; inactive = no migration change, or too few cells
The deposit covers about 18,000 reagents; shown is an unselected part. In the full data, about 1,030 (5.7%) were called active. 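Inactive calls also include pools with fewer than 3300 nuclei, whose migration was not assessed.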 Raw values vary from plate to plate and are shown uncorrected. Unmarked entries are inactive. Further read-outs or replicates are left out here. No sequences are given here.

For KCNN2 (potassium calcium-activated channel subfamily N member 2), how do the results read?
migration robust z-score: -0.26; migration class with cell-count check: migration z between -2 and 2; enough cells; nuclei per well, duplicate mean: 5298

With IL36B (interleukin 36 beta), what does the deposit list?
migration robust z-score: -0.1; migration class with cell-count check: migration z between -2 and 2; enough cells; nuclei per well, duplicate mean: 5943

What did the screen give for PTGR2 (prostaglandin reductase 2)?
migration robust z-score: 0.6; migration class with cell-count check: migration z between -2 and 2; enough cells; nuclei per well, duplicate mean: 5786

With NDUFB1 (NADH:ubiquinone oxidoreductase subunit B1), what was measured?
migration robust z-score: 0.18; migration class with cell-count check: migration z between -2 and 2; enough cells; nuclei per well, duplicate mean: 6038

What is on record for EXOC3 (exocyst complex component 3)?
migration robust z-score: -0.06; migration class with cell-count check: migration z between -2 and 2; enough cells; nuclei per well, duplicate mean: 5209

What is on record for CACNB4 (calcium voltage-gated channel auxiliary subunit beta 4)?
migration robust z-score: -0.05; migration class with cell-count check: migration z between -2 and 2; enough cells; nuclei per well, duplicate mean: 4662

Which result is listed for KDM8 (lysine demethylase 8 (putative))?
migration robust z-score: -1.05; migration class with cell-count check: migration z between -2 and 2; enough cells; nuclei per well, duplicate mean: 5704

With MRPS27 (mitochondrial ribosomal protein S27), what does the deposit list?
migration robust z-score: 0.19; migration class with cell-count check: migration z between -2 and 2; enough cells; nuclei per well, duplicate mean: 5582

Which result is listed for TTN (titin)?
migration robust z-score: 0.55; migration class with cell-count check: migration z between -2 and 2; enough cells; nuclei per well, duplicate mean: 5310

For RSPH10B (radial spoke head 10 homolog B), what was measured?
migration robust z-score: 0.4; migration class with cell-count check: migration z between -2 and 2; enough cells; nuclei per well, duplicate mean: 6058

With TMEM70 (transmembrane protein 70), what was measured?
migration robust z-score: 0.51; migration class with cell-count check: migration z between -2 and 2; enough cells; nuclei per well, duplicate mean: 5438

For EFCAB3 (EF-hand calcium binding domain 3), what does the deposit list?
migration robust z-score: -0.19; migration class with cell-count check: migration z between -2 and 2; enough cells; nuclei per well, duplicate mean: 6036
